{
  "source": "patent US20120329679A1",
  "binders": {"B1": {"name": "HA tagged anti-VEGF scFv-GR1 fusion protein expressed in COS 6 cells from mammalian expression vector pMAG10 (scFv)", "scFv": "SSEVQLVQSGGGVVQPGGSLRLSCAASGYTFTNYGMNWIRQAPGKGLEWVGWINTYTGEPTYAADFKRRVTFSLDTSKSTAYLQLNSLRAEDTAVYYCAKYPYYYGRSHWYFDVWGQGTLVTVSSGGGGSGGGGSGGGGSDIVMTQSPSTLSASPGERATITCSASQSISTYLAWYQQKPGQAPQVLIYAASNLASGVPNRFSGSRSGTDFTLTISSLQPEDFAVYYCQQYYSTPWTFGGGTKVEIKAAAYPYDVPDYAGGHHHHHHVDGSGGGEEKSRLLEKENRELEKIIAEKEERVSELRHQLQSVGGC"}},
  "key": {"[1]": {"biological_target": "myc tagged GR2-EGFR-TM (adapter GR2 fused with the transmembrane domain of human epidermal growth factor receptor), expressed on COS 6 cells from helper vector pMAG2 (human) (UniProt P00533)", "experiment": "two-colour immunofluorescence (anti-HA, anti-myc) on COS 6 cells co-transfected with pMAG10 and pMAG2"}, "[2]": {"biological_target": "myc tagged GR2-EGFR-TM (adapter GR2 fused with the transmembrane domain of human epidermal growth factor receptor), expressed on COS 6 cells from helper vector pMAG2 (human) (UniProt P00533)", "experiment": "two-colour immunofluorescence on COS 6 cells co-transfected with pMAG10 and pMAG2 (FIG. 9)"}},
  "note": "These are yes or no findings as the source states them, for the method shown. Some results given as binding are weak or reduced against the parent protein; the word gives no strength. Sequences can lack the tags named with a protein.",
  "data": [
    {"binder": "B1", "values": [
      {"measurement": "binding", "setting": "[1]", "value": "binds"},
      {"measurement": "binding", "setting": "[2]", "value": "binds"}
    ]}
  ]
}
